Drawing on PMC8115569, this text covers binding for 2 substances.

Chains of the proteins cited; added tags and fusions are not shown. Residues count along the entry.
UniProt P49023: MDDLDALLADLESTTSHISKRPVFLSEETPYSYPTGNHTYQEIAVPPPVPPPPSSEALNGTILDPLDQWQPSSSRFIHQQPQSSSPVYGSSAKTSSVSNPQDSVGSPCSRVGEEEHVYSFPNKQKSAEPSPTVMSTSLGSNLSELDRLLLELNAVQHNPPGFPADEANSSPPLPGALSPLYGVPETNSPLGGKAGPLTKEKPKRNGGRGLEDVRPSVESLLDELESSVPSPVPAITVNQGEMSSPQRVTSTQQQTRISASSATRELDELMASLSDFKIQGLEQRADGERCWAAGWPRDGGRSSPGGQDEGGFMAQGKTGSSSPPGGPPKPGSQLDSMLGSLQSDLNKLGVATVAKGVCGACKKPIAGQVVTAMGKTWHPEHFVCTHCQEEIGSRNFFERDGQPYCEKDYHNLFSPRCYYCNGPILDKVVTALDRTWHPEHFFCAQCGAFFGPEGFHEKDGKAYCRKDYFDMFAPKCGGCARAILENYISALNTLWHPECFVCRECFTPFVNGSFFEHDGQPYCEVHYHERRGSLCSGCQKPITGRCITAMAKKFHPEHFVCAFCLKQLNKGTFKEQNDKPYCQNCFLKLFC
UniProt P05106, residues 27-788: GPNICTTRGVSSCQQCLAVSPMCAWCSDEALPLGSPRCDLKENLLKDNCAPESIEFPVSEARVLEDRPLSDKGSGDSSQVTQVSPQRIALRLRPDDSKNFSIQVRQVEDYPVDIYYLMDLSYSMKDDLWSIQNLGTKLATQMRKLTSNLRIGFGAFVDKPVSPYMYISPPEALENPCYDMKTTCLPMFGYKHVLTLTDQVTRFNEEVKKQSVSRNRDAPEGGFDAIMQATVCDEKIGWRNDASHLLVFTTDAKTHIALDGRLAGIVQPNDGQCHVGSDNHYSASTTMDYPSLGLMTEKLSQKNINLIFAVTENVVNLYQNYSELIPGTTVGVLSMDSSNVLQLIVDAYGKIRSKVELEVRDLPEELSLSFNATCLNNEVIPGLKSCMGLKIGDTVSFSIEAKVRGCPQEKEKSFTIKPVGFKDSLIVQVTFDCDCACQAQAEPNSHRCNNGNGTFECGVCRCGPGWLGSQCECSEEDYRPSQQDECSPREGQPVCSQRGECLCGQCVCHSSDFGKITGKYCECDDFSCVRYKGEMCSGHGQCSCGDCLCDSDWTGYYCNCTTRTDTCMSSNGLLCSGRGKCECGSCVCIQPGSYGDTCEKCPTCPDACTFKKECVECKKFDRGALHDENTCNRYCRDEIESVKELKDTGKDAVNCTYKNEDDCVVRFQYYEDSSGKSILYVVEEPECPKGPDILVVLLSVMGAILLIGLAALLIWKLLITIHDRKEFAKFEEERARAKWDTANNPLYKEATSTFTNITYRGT
UniProt Q96QZ7: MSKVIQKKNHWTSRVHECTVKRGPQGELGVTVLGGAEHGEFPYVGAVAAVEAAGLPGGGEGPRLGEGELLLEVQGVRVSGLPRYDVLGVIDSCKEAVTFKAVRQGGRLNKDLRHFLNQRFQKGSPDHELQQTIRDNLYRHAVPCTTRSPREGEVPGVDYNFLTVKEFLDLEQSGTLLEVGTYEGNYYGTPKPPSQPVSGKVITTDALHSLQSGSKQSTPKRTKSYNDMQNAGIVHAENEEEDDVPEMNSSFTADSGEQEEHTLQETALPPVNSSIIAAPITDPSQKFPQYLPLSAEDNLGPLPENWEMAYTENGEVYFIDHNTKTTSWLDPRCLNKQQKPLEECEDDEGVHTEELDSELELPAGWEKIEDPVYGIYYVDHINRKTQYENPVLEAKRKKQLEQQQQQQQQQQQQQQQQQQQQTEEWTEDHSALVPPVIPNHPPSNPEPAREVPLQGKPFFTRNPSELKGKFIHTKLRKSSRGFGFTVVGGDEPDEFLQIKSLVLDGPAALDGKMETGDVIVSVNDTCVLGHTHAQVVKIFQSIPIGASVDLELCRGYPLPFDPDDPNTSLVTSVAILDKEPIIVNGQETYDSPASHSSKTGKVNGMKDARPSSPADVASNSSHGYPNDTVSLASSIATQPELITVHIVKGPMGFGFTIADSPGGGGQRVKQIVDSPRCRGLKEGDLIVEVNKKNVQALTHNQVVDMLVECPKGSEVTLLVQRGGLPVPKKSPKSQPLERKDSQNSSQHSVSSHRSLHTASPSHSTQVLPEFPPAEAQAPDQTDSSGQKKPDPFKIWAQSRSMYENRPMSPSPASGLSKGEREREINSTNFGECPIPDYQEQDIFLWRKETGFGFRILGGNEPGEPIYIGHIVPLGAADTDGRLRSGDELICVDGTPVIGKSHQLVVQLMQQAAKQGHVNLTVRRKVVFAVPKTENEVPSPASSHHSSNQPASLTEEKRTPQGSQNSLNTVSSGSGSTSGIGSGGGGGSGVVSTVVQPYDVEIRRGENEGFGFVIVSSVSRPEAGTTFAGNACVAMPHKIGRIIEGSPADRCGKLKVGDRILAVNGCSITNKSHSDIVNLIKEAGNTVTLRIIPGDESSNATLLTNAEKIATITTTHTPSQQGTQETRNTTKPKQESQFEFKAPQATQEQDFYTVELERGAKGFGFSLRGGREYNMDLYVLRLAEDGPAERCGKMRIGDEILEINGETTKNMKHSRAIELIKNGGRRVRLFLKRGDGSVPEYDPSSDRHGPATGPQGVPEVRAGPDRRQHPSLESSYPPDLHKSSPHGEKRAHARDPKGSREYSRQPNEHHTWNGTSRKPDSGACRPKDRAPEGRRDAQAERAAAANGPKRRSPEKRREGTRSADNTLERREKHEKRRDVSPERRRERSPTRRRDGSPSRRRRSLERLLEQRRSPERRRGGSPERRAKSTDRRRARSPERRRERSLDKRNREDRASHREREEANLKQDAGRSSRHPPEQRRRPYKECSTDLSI
UniProt Q9Y490: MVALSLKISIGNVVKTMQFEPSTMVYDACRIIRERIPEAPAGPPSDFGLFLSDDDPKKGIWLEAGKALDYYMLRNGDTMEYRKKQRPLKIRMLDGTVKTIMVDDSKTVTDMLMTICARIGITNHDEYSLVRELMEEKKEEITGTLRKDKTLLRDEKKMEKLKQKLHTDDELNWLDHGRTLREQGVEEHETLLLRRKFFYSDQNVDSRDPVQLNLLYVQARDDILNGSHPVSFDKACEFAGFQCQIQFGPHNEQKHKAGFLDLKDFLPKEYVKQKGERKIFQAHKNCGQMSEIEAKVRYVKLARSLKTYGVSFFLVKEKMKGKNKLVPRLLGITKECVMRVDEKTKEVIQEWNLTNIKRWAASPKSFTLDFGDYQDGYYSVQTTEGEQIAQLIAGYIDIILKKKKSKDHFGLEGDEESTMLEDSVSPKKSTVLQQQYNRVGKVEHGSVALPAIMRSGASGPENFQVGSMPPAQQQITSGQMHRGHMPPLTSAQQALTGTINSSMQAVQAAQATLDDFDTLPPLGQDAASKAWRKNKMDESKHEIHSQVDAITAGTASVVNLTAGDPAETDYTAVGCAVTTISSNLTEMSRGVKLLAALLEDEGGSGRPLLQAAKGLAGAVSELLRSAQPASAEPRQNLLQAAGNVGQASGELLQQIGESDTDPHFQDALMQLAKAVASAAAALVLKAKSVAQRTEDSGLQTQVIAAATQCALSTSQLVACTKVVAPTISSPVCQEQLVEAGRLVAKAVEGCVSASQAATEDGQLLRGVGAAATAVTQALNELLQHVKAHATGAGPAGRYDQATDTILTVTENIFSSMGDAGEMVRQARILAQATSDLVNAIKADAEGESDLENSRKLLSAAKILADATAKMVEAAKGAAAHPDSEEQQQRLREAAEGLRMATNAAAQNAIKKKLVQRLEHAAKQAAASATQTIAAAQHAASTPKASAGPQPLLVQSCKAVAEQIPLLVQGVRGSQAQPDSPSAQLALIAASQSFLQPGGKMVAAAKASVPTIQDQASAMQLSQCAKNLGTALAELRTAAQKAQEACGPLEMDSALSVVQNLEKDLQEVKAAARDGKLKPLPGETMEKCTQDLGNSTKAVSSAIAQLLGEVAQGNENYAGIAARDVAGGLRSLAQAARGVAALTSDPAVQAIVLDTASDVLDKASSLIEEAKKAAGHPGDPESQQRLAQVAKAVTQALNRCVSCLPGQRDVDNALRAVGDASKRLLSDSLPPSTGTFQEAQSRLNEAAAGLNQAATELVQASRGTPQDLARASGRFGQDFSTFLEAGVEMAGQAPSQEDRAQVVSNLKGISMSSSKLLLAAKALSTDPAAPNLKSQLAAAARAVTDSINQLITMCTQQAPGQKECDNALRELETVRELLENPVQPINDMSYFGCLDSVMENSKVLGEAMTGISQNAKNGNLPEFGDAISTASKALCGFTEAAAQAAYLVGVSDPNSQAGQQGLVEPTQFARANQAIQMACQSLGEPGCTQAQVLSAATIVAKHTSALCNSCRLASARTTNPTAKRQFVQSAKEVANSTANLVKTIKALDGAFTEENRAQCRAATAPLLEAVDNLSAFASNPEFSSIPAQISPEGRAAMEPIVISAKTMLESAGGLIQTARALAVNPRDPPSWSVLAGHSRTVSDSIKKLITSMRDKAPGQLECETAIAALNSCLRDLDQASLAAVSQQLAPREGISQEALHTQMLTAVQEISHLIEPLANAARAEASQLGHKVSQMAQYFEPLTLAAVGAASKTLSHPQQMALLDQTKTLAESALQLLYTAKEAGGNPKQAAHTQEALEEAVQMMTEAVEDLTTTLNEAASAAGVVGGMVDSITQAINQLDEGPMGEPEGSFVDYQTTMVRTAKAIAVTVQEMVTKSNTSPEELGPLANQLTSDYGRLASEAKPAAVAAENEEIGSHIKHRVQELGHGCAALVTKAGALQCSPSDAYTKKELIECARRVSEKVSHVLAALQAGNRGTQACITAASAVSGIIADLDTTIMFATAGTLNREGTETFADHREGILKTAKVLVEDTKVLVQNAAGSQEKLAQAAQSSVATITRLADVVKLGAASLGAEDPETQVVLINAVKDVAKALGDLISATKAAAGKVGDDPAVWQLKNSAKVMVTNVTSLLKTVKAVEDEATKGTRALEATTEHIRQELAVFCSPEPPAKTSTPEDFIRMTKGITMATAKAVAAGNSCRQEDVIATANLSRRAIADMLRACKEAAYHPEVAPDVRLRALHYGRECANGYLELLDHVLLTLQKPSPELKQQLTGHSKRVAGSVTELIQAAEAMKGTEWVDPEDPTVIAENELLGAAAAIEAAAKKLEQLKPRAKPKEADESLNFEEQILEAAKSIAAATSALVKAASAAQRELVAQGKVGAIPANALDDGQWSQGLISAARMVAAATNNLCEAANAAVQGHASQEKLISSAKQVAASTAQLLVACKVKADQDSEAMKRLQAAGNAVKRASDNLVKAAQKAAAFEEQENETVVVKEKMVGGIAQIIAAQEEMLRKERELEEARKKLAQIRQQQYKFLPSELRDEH

Experiment [1] addresses paxillin (human (endogenous in 293 T)) (UniProt P49023). In words: co-IP; lysates of 293 T cells in NP-40 lysis buffer with protease and phosphatase inhibitors; primary antibody overnight at 4°C, protein G magnetic beads 3 h at 4°C; western blot.
In experiment [2] the target is T1, phosphatase PTP-PEST (human (endogenous in 293 T)) (UniProt Q05209).
T1 sequence: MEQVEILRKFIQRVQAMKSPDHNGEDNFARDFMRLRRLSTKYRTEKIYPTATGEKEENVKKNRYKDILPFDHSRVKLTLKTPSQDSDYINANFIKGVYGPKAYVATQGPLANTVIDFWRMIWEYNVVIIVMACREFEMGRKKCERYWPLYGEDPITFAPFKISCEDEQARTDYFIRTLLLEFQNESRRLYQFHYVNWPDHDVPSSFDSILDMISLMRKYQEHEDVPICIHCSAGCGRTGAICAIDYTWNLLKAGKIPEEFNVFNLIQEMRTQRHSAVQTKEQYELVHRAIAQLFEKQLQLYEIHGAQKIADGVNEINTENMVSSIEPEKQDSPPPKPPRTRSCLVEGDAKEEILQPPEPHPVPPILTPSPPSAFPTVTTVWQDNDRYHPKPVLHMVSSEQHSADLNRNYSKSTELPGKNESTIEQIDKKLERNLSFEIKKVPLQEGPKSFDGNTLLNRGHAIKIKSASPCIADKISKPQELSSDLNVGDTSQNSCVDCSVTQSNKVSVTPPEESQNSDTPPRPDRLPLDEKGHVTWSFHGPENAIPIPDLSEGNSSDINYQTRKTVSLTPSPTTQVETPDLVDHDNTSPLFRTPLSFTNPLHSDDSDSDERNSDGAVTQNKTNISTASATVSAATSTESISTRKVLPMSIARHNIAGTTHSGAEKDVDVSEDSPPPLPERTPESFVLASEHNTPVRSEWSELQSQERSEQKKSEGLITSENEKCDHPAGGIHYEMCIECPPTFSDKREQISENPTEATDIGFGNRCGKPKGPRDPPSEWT
The experiment is described as above.

Experiment [3] has as its target β3-integrin (human (endogenous in HUVEC)) (UniProt P05106). Put plainly: co-IP; lysates of adherent HUVEC in NP-40 lysis buffer with protease and phosphatase inhibitors; primary antibody (MAGI1, talin 1, β3-integrin or isotype control IgG) overnight at 4°C, protein G magnetic beads 3 h at 4°C; western blot for talin 1 or MAGI1.
The target of experiment [4] is MAGI1 (Membrane associated guanylate kinase, WW and PDZ domain containing 1) (human (endogenous in HUVEC)) (UniProt Q96QZ7). Described as above.

Results are given in words; binding and its absence hold for the method and conditions named. Binding seen in cells or lysates may run through a third protein. Some results given as binding are weak or reduced against the parent protein; the word gives no strength.

Turning to “MAGI1 (Membrane associated guanylate kinase, WW and PDZ domain containing 1) (from UniProt Q96QZ7 1-1491)”, the binding result in experiment [1], in experiment [2] and in experiment [3] was “binds” throughout.
With talin 1 (from UniProt Q9Y490 1-2541), the binding entry in experiment [4] was “binds”.
